Measurements: publication PMC4529982
These are yes or no findings as the source states them, for the method shown. Binding seen in cells or lysates may run through a third protein. Some entries that bind do so weakly or less than the wild type. One block for each molecule: values may come before it.

Sequences of proteins named here, by UniProt entry; tags and fusion partners are left off.
UniProt Q01860: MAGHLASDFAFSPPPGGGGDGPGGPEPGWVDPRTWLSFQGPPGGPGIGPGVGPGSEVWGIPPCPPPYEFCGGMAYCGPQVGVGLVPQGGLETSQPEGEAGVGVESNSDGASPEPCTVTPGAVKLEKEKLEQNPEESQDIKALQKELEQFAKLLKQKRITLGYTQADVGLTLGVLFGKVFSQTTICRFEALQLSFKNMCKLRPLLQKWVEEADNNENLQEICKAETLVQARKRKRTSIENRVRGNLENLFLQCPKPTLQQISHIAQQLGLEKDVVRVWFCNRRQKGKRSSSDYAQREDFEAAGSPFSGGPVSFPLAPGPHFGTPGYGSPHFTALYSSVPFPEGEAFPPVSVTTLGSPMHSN

Legend:
[1] = target: T1, Nox4 (human (endogenous in AFSC)) (UniProt Q9NPH5); assay: co-IP; nuclear lysate (NL) of human AFSC immunoprecipitated with Nox4 antibody, western blot with anti-Oct4 and anti-sc-35
T1 sequence: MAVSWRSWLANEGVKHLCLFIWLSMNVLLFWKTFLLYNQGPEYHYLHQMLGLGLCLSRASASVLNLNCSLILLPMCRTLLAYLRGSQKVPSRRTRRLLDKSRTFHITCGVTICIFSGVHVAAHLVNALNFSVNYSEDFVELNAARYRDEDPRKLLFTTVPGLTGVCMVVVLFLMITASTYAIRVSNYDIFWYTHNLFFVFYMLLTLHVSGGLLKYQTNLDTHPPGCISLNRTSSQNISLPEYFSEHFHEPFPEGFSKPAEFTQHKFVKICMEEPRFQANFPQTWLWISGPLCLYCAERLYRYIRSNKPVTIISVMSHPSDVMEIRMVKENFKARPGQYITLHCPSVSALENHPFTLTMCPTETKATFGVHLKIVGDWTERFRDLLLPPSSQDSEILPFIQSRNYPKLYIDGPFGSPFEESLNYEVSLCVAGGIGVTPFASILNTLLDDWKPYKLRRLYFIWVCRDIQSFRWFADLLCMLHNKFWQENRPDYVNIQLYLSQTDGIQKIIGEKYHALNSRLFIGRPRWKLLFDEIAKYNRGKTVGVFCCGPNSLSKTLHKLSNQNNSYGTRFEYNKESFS

[2] = target: T2, sc-35 (human (endogenous in AFSC)) (UniProt Q01130); assay: co-IP; precleared total lysates of human AFSC (AT lysis buffer: 20 mM Tris-Cl pH 7.0, 1% Nonidet P-40, 150 mM NaCl, 10% glycerol, 10 mM EDTA) incubated overnight with rabbit anti-Nox4 or mouse anti-sc-35 (3 ug), protein A/G agarose at 4°C, western blot
T2 sequence: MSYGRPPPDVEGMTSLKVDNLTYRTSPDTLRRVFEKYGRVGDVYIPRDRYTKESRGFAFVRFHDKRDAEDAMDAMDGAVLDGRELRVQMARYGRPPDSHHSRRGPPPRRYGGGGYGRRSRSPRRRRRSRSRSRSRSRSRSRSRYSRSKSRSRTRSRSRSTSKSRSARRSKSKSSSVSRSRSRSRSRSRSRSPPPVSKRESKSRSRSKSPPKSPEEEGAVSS

[3] = target: T1, Nox4 (human (endogenous in AFSC)); assay: as above

binding [1]: binds
Molecule: Oct4 (from UniProt Q01860 1-360)

binding [2]: binds
B1: Nox4 (protein, UniProt Q9NPH5 1-578)
chain: T1 sequence

binding [3]: binds
binding [1]: binds
B2: sc-35 (protein, UniProt Q01130 1-221)
chain: T2 sequence
